Test results as given in patent US11679097B2, “Combination product containing limonoid compound and biguanide compound” (ZHEJIANG YANGSHENGTANG INSTITUTE OF NATURAL MEDICATION CO., …, priority 2017, dated 2023).
At least one compound was matched to its structure with a doubt left.

Test system: db/db mice
Assay: Blood glucose and insulin in mouse model of type II diabetes (Example 4)
Type: in vivo
Conditions: single administration 0.2 g/kg per day by gavage, two weeks, 1 h after last administration
Source text: Effects of a Limonoid Compound, Metformin or a Combination Thereof on Blood Glucose and Insulin in a Mouse Model of Type II Diabetes
In the present embodiment, the limonoid compound selected nomilin, deacetylnomilin, nomilin acid, deactylnomilin 17-β-D-glucopyranoside, and a nomilin single administration group, deacetylnomilin single administration group, nomilin acid single administered group, deactylnomilin 17-β-D-glucopyranoside single administration group, and combination thereof with metformin administration groups were set, respectively.
Conditions for experimental feeding: as type II diabetes model mice, 6-week-old SPF-grade db/db mice were purchased from the Nanjing Model Biology Institute, and subjected to experimental feeding after 7 days of preliminary feeding. It should be noted that the conditions for raising the mice were as follows: the temperature was 23±1° C., the humidity was 55±10%, the lights were turned on between 7 am and 7 pm (the lights were turned off at other time), and the mice were allowed to access to water and feed freely. The experimental feed was mouse growth-stable feed (GB M2118), and the daily feeding and management of the animals were under the responsibility of the animal security department, which provided the animals with sufficient padding and fresh drinking water daily. […]

**Q.** How did the Blood glucose value turn out when `CC1(C)OC(=O)C[C@H](O)[C@]2(C)[C@H]3CC[C@@]4(C)[C@H](c5ccoc5)OC(=O)[C@H]5O[C@]54[C@]3(C)C(=O)C[C@@H]12` [deacetylnomilin] was run?
**A.** 11.9 ± 2 9 mmol/L
